From PubChem BioAssay (NCATS)
The shares of active, inactive and inconclusive entries below differ from those in the screen. Potencies beside an inconclusive call are fits to weak or partial responses and may not hold up. The source made the active and inactive calls. The call rests on the fitted dose curve; in most records, active means well fitted cell-killing curve with a large enough effect; inconclusive means small, poorly fitted or top-dose-only effect, or effect the other way; inactive means no such curve, though single readings can be large or run the other way.

experiment: Quantitative High-Throughput drug screen in 47 multiple myeloma cell lines against the NCATS MIPE library collection: KMS20_JCRB cell viability assay (AID 1918973); settings: CellTiter-Glo ATP, 48 h; viability (% of DMSO): at 45.8 µM (top of the series); further: nearly all actives have a fitted effect of over 45% in size
Procedure, shortened: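 CellTiter-Glo ATP luminescence gave viability after 48 h compound treatment at 37C of 500 multiple myeloma cells per well. Normalisation used DMSO-only wells as 100% and media-only wells as 0% viability; primary qHTS of approved and investigational drugs.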
Potency means the concentration at half of the fitted maximal effect.

Which “viability (% of DMSO)” value does the source give for `CC1=C(C)C(=O)C(C(CCCCCC(=O)O)c2ccccc2)=C(C)C1=O` (centres undefined) here?
The value was inactive: 68%.

For `CO[C@H]1C(=O)[C@]2(C)[C@@H](OC)C[C@H]3OC[C@@]3(OC(C)=O)[C@H]2[C@H](OC(=O)c2ccccc2)[C@]2(O)C[C@H](OC(=O)[C@H](O)[C@@H](NC(=O)OC(C)(C)C)c3ccccc3)C(C)=C1C2(C)C`, which “viability (% of DMSO)” value is on record?
Its value is inactive: 53.7%.

With `C[C@@H]1CCN(C(=O)CC#N)C[C@H]1N(C)c1ncnc2[nH]ccc12` as the compound, how does the Potency read?
The Potency was inconclusive: 0.001 µM [cytotoxic].

Which Potency does the source give for `CCc1ccc(C=C2SC(=S)NC2=O)cc1` here?
Its Potency is inconclusive: 0.148 µM [cytotoxic, partial curve, poor fit].

For `O=c1c(-c2ccc(O)cc2)coc2cc(O)ccc12`, which Potency is on record?
Its Potency is inconclusive: 0.166 µM [cytotoxic, full curve, poor fit].

With `Cc1cccc(C#Cc2ccccc2)n1` as the compound, how does the Potency read?
The Potency was inconclusive: 0.0042 µM [cytotoxic, full curve, poor fit].

With `Nc1nc(F)nc2c1ncn2[C@@H]1O[C@H](COP(=O)(O)O)[C@@H](O)[C@H]1O` as the compound, how does the Potency read?
Its Potency is inconclusive: 14.8 µM [cytotoxic, partial curve, poor fit].

For `O=C(NNC(=O)c1ccc(CNS(=O)(=O)c2ccc(F)c(Cl)c2)cc1)c1ccccc1`, which “viability (% of DMSO)” value is on record?
The value was inactive: 101%.

For `O=C(Nc1ccccc1)Nc1ccc(-c2ccc(C(=O)[C@H]3CCC[C@H]3C(=O)O)cc2)cc1`, which viability (% of DMSO) is on record?
The viability (% of DMSO) was inconclusive: 162%.

Which Potency does the source give for `NC1CCC(Nc2nc(Nc3ccc(C(=O)N4CCCCC4)cc3)c3ncn(-c4cccc(F)c4)c3n2)CC1` (centres undefined) here?
Its Potency is inconclusive: 0.0132 µM [rising, full curve, poor fit].

Which “viability (% of DMSO)” value does the source give for `O=C(O)c1cccc(-c2noc(-c3ccccc3F)n2)c1` here?
Its value is inactive: 121%.

With `O=c1c(O)c(-c2ccc(O)c(O)c2)oc2cc(O)cc(O)c12` as the compound, how does the Potency read?
The Potency was inconclusive: 14.8 µM [cytotoxic, partial curve, poor fit].

For `Cc1[nH]c(C=C2C(=O)Nc3ccccc32)c(C)c1CCC(=O)O`, which Potency is on record?
The Potency was active: 11.8 µM.

For `CC1(C)OC2=C(C(=O)c3ccccc3C2=O)[C@H](NCc2ccccc2)[C@H]1O`, which Potency is on record?
Its Potency is inconclusive: 3.72 µM [cytotoxic, full curve, poor fit].

For `C[C@H](Cc1ccc(O)c(O)c1)[C@@H](C)Cc1ccc(O)c(O)c1`, which Potency is on record?
The Potency was inconclusive: 26.4 µM [cytotoxic, single point].

With `CC[C@@H](C)[C@H](NC(=O)[C@H](CC1CCCCC1)NC(=O)c1ccno1)C(=O)N1CCC2(CCc3ccccc32)CC1` as the compound, how does the Potency read?
The Potency was inconclusive: 23.5 µM [cytotoxic, partial curve, poor fit].

For `CS(=O)(=O)CCNCc1ccc(-c2ccc3ncnc(Nc4ccc(OCc5cccc(F)c5)c(Cl)c4)c3c2)o1`, which Potency is on record?
Its Potency is active: 1.48 µM.

For `CC(C)(C)COc1ccc(-n2cc(C(=O)O)cn2)cc1C#N`, which Potency is on record?
Its Potency is inconclusive: 0.0235 µM [cytotoxic, full curve, poor fit].

With `CC(=O)Oc1cc2c(s1)CCN(C(C(=O)C1CC1)c1ccccc1F)C2` (centres undefined) as the compound, how does the Potency read?
The Potency was inconclusive: 1.05 µM [cytotoxic, full curve].

For `COc1cc2c(cc1OC)CN(CCc1ccc(NC(=O)c3cc(OC)c(OC)cc3NC(=O)c3cnc4ccccc4c3)cc1)CC2`, which Potency is on record?
Its Potency is inconclusive: 8.33 µM [cytotoxic, full curve, poor fit].

Which Potency does the source give for `CC(=O)Oc1ccccc1C(=O)O` here?
Its Potency is inconclusive: 6.62 µM [rising, partial curve, poor fit].

For `O=c1c2ccccc2nc2n1CCc1c-2[nH]c2ccccc12`, which Potency is on record?
The Potency was inconclusive: 0.0037 µM [cytotoxic, full curve, poor fit].

Which “viability (% of DMSO)” value does the source give for `COc1ccc(CC2=NN3C([C@@H](CCc4ccccc4)[C@@H](C)O)=NC(C)C3C(=O)N2)cc1OC` (some centres undefined) here?
Its value is inactive: 137%.

With `CCOc1ccc(Cc2cc([C@@H]3O[C@H](CO)[C@@H](O)[C@H](O)[C@@H]3O)ccc2Cl)cc1` as the compound, how does the Potency read?
Its Potency is inconclusive: 16.6 µM [cytotoxic, partial curve, poor fit].

Which Potency does the source give for `CN1CCN(C2=Nc3cc(Cl)ccc3Nc3ccccc32)CC1` here?
The Potency was inconclusive: 18.7 µM [cytotoxic, partial curve, poor fit].

For `CCOC1OC(=O)C[C@H]1NC(=O)[C@@H]1CCCN1C(=O)[C@@H](NC(=O)c1ccc(N)c(Cl)c1)C(C)(C)C` (some centres undefined), which Potency is on record?
Its Potency is inconclusive: 1.05 µM [cytotoxic, full curve, poor fit].

Which Potency does the source give for `O=C(CCN1CCN(C(=O)OCc2cc(Cl)cc(Cl)c2)CC1)c1ccc2[nH]c(=O)oc2c1` here?
The Potency was inconclusive: 0.0012 µM [rising, full curve, poor fit].

For `O=C(O)c1cc(=O)c2c(OCC(O)COc3cccc4oc(C(=O)O)cc(=O)c34)cccc2o1`, which Potency is on record?
The Potency was inconclusive: 11.8 µM [rising, single point].

For `CO[C@H]1O[C@@H]2O[C@@]3(C)CC[C@@H]4[C@@H](C)CC[C@@H]([C@H]1C)[C@@]24OO3`, which Potency is on record?
The Potency was inconclusive: 1.32 µM [cytotoxic, full curve, poor fit].

For `Cc1[nH]c(=O)c(C#N)cc1-c1ccc2nccn2c1`, which Potency is on record?
Its Potency is inconclusive: 6.62 µM [cytotoxic, full curve, poor fit].

For `Cc1c(OCC(F)(F)F)ccnc1CS(=O)c1nc2ccccc2[nH]1` (centres undefined), which Potency is on record?
The Potency was inconclusive: 0.166 µM [rising, full curve, poor fit].

Which Potency does the source give for `CCCn1c(=O)c2[nH]c(C34CC5CC3C[C@@H](C5)C4)nc2n(CCC)c1=O` here?
Its Potency is inconclusive: 0.001 µM.

Which “viability (% of DMSO)” value does the source give for `C[C@H](NC(=O)[C@@H](O)c1cc(F)cc(F)c1)C(=O)N[C@@H]1C(=O)N(C)c2ccccc2-c2ccccc21` here?
The value was inactive: 113%.

With `Cc1ccc(NC(=O)c2ccc(CN3CCN(C)CC3)cc2)cc1Nc1nccc(-c2cccnc2)n1` as the compound, how does the Potency read?
The Potency was inconclusive: 26.4 µM [cytotoxic, partial curve, poor fit].

For `Cc1[nH]c(=O)c(C#N)cc1-c1ccncc1`, which Potency is on record?
Its Potency is inconclusive: 3.72 µM [cytotoxic, full curve, poor fit].

With `Clc1ccc2nsnc2c1NC1=NCCN1` as the compound, how does the Potency read?
The Potency was inconclusive: 37.2 µM [rising, single point].

Which “viability (% of DMSO)” value does the source give for `COc1ccnc(CS(=O)c2nc3ccc(OC(F)F)cc3[nH]2)c1OC` (centres undefined) here?
Its value is inactive: 93.7%.

For `CCNC(=O)c1noc(-c2cc(C(C)C)c(O)cc2O)c1-c1ccc(CN2CCOCC2)cc1`, which Potency is on record?
Its Potency is active: 0.0209 µM.

For `CC(C)(O)[C@H]1CC[C@@](C)([C@H]2[C@@H](O)C[C@@]3(C)[C@@H]4C[C@H](O[C@@H]5O[C@H](CO)[C@@H](O)[C@H](O)[C@@H]5O)[C@H]5C(C)(C)[C@@H](O[C@@H]6OC[C@@H](O)[C@H](O)[C@@H]6O)CC[C@@]56C[C@@]46CC[C@]23C)O1`, which “viability (% of DMSO)” value is on record?
The value was inactive: 124%.
